According to article PMC7468131:
Results are given in words; binding and its absence hold for the method and conditions named. In cells and extracts the contact can be indirect. A yes stands for co-enrichment or nearness to the bait. Other partners may have been found.

The chains behind the UniProt entries cited, without tags or fusion partners. Residues count along the entry.
UniProt Q13586, residues 23-685: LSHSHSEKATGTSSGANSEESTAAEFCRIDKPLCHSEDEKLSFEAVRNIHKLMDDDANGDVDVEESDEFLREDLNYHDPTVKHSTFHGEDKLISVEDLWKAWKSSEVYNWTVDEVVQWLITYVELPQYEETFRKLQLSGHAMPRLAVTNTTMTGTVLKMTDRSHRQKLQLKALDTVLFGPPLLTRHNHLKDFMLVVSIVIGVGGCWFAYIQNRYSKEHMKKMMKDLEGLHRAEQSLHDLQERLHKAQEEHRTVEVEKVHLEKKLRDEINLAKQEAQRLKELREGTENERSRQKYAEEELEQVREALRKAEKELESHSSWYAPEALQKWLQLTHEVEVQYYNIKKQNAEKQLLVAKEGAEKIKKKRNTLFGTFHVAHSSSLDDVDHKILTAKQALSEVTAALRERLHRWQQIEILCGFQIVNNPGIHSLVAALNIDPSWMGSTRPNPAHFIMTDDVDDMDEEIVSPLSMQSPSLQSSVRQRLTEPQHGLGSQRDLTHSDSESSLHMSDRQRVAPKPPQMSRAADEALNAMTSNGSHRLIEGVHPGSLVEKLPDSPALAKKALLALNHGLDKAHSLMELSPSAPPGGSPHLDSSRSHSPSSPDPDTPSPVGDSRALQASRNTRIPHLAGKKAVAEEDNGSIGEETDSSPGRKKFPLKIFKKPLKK
UniProt Q9P246, residues 15-746: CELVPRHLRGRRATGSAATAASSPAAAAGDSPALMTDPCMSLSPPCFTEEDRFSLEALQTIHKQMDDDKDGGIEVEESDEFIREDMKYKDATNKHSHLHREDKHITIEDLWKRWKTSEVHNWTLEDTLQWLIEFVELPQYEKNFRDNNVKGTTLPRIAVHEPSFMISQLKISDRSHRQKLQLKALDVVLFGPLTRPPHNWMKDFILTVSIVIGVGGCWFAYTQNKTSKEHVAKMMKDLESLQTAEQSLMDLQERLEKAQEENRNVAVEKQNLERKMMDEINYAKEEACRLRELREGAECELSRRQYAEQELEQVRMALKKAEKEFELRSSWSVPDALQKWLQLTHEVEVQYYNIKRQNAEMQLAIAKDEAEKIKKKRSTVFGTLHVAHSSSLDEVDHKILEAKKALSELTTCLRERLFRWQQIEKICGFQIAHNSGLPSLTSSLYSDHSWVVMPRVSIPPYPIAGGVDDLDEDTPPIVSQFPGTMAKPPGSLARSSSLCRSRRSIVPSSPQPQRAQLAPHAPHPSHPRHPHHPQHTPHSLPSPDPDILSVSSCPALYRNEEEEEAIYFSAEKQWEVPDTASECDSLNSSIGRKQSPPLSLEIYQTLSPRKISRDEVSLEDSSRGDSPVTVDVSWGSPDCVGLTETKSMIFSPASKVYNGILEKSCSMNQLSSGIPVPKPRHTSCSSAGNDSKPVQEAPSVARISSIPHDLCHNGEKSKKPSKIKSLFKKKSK

Biological target: FLAG-tagged STIM1 (stromal interaction molecule 1), stably expressed in HeLa cells (UniProt Q13586)
Test: affinity purification with mass spectrometry; HeLa cells stably expressing low levels of FLAG-tagged STIM1; crosslinking, glycerol gradient fractionation, anti-FLAG resin, elution with FLAG peptide, SDS-PAGE bands analysed by nLC-MS/MS

binding: binds
Substance: STIM2, endogenous in HeLa cells (from UniProt Q9P246 15-746)
